{"source": "patent US20060276440A1", "about": "“Treatment of inflammatory disorders” (priority 2005, published 2006)", "key": {"OSM signaling": {"test_system": "OSM signaling", "experiment": "[…] 4A1 cell line (A549) OSM-stimulated luciferase reporter assay", "format": "cell-based", "conditions": "Homo sapiens, 4A1 cells, mean (Examples 7, 10)", "procedure": "Cell line 4A1 was established in A549 cells (a human lung cancer cell line) using BV32, a vector that carries both the luciferase and GFP reporters. Assay development was performed to optimize the conditions of the OSM-response in the 4A1 […]® line.\nReporter activities of Sentinel® clones were measured using the Steady-Glo® Luciferase assay system (Promega, Madison, Wis.), according to the manufacturer's instructions, and were normalized to cell numbers based on nucleic acid quantification (CyQuant® cell proliferations assay, Molecular Probes/Invitrogen, Carlsbad, Calif.). In order to identify potential anti-inflammatory compounds, the OSM-responding Sentinel® clone 4A1 was used for a library screen of approximately 1800 compounds."}, "MMP-13": {"test_system": "MMP-13", "experiment": "IL-1/OSM-stimulated pro-MMP-13 production in SW-1353 cells (ELISA)", "format": "cell-based", "conditions": "Homo sapiens; SW1353 cells; mean (Examples 8, 10); read-out: IC50 values by pro-MMP-13 (OSM/IL-1-mediated production)", "source_text": "To test the compounds identified in the preliminary reporter (luciferase) activity […]® line 4A1 screen for inhibition of OSM signaling in a more physiologically relevant environment, a human cell line involved in an inflammatory disease was adapted. The human cartilage cell line SW-1353 was selected.\nIn the human cartilage cell line SW-1353, while IL-1 is believed to activate expression of collagenases to a small degree and OSM is believed to have no effect on collagenase expression, a combination of IL-1 and OSM is believed to lead to a synergistic activation of collagenases to much higher levels (S. Cowell et al., Biochem J 331 (Pt 2), 453 (Apr. 15, 1998). Regulation of MMP-13 in SW-1353 cells is, therefore, believed to provide a biomarker which can be used to monitor IL-1/OSM-mediated signal transduction events in secondary assays. […]\nFor matrix metalloproteinase (MMP) measures, SW1353 cells were grown to confluence in 24 well plates, washed in DMEM (with Ham's F12) and placed in 500 ul of serum free DMEM/F-12 with 0.2% lactalbumin hydrosylate with and without OsM/IL-1. After 24 hrs, supernatants were collected and the amounts of proMMP13, totalMMP2, and proMMP1 were measured using Quantikine® ELISA kit for human MMPs (R & D systems, Minneapolis, Minn.). […]"}}, "data": [{"smiles": "COc1cc2c(c(OC)c1OC)-c1ccc(OC)c(=O)cc1[C@@H](NC(C)=O)CC2", "note": "(atropisomer, axis not shown) [Colchicine (4), colchicine]", "values": [{"measurement": "IC50", "setting": "OSM signaling", "value": 0.261, "unit": "µM"}, {"measurement": "IC50", "setting": "MMP-13", "value": 0.295, "unit": "µM"}]}]}
